Source: US20120129927A1, “New Anthraquinone Derivatives” (SEALIFE PHARMA GMBH, priority 2009, published 2012)
Some results were stated once for a whole list of compounds, not compound by compound.

Test system: melanoma cells
Assay: Alamar Blue assay using melanoma cells
Format: cell-based
Conditions: 10 μg/ml, 48 h, relative to blank
Description: In this test, the dye resazurin is used as an indicator for measuring the cytotoxicity of substances. […] Depending on the degree of their toxicity, cytotoxic agents decelerate or stop this reduction.
In the course of this experiment, melanoma cells were treated with several concentrations of 3-O-acetyl altersolanol M, i.e. with 1, 10, and 50 μg/ml, with altersolanol K and alterporriol F as comparative substances, as well as with alterporriol I+J, i.e. compound (5) of the present invention, at respective concentrations of 10 μg/ml, and incubated for 48 h, whereafter the samples' fluorescence was determined spectrophotometrically at 570/600 nm, the fluorescence being proportional to the number of surviving cells in the samples.
The measurement results were related to the fluorescence of a blank, to which no cytotoxic agent had been added, and are shown in a graph in FIG. 1.

| Substance | inhibition / reduction of the number of melanoma cells |
| --- | --- |
| altersolanol K | more than 10% |
| alterporriol F | more than 10% |
